Drug screen on melanoma cell lines: cell count

From a melanoma drug combination screen (doi:10.1371/journal.pone.0140310); values rounded.

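Human melanoma cell lines in 1,536-well plates were treated with a pair of drugs for 72 h, then fixed, stained and imaged. Each value is the count of nuclei relative to DMSO-treated wells, in %, so that 100 equals the control. Concentrations were fixed for each drug; these are the higher of two levels. The file gives one value for each pair and line, without errors, so small differences may be noise.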 This is part of the screen, not chosen by result.

Drugs:
OSI-906: C[C@]1(O)C[C@@H](c2nc(-c3ccc4ccc(-c5ccccc5)nc4c3)c3c(N)nccn32)C1 at 2 µM
darinaparsin: C[As](C)SC[C@H](NC(=O)CC[C@H](N)C(=O)O)C(=O)NCC(=O)O at 2 µM
BI-D1870: CC(C)CCN1c2nc(Nc3cc(F)c(O)c(F)c3)ncc2N(C)C(=O)C1C (stereo not drawn) at 1 µM
vismodegib: CS(=O)(=O)c1ccc(C(=O)Nc2ccc(Cl)c(-c3ccccn3)c2)c(Cl)c1 at 5 µM
selumetinib: Cn1cnc2c(F)c(Nc3ccc(Br)cc3Cl)c(C(=O)NOCCO)cc21 at 0.075 µM
temozolomide: Cn1nnc2c(C(N)=O)ncn2c1=O at 10 µM
lapatinib: CS(=O)(=O)CCNCc1ccc(-c2ccc3ncnc(Nc4ccc(OCc5cccc(F)c5)c(Cl)c4)c3c2)o1 at 4 µM
nilutamide: CC1(C)NC(=O)N(c2ccc([N+](=O)[O-])c(C(F)(F)F)c2)C1=O at 5 µM
ENMD-2076: Cc1cc(Nc2cc(N3CCN(C)CC3)nc(/C=C/c3ccccc3)n2)n[nH]1 at 0.2 µM

Drugs | WM3619 | WM451Lu | COLO 800 | COLO 792 | COLO 829
darinaparsin and vismodegib | 109 | 97.2 | 68.1 | 93.7 | 95.6
BI-D1870 and ENMD-2076 | 54.7 | 92.2 | 25.0 | 57.6 | 93.1
selumetinib and OSI-906 | 62.6 | 47.0 | 47.3 | 55.2 | 87.5
darinaparsin and ENMD-2076 | 78.4 | 68.2 | 53.9 | 52.5 | 80.0
OSI-906 and darinaparsin | 87.0 | 68.9 | 42.7 | 85.2 | 93.6
lapatinib and BI-D1870 | 59.3 | 73.6 | 42.7 | 50.1 | 85.6
selumetinib and nilutamide | 70.1 | 80.5 | 96.8 | 77.6 | 98.2
temozolomide and darinaparsin | 74.0 | 83.0 | 80.2 | 101 | 78.8
nilutamide and lapatinib | 74.8 | 74.4 | 51.7 | 76.1 | 94.3
selumetinib and lapatinib | 62.6 | 59.1 | 54.7 | 42.4 | 82.7
temozolomide and lapatinib | 81.9 | 84.3 | 63.2 | 52.6 | 57.5
ENMD-2076 and vismodegib | 82.7 | 82.4 | 77.6 | 89.3 | 84.2
ENMD-2076 and OSI-906 | 99.6 | 83.4 | 23.9 | 61.7 | 78.3
nilutamide and ENMD-2076 | 87.8 | 90.2 | 53.6 | 61.2 | 90.2
temozolomide and ENMD-2076 | 83.7 | 113 | 72.1 | 77.5 | 81.3
BI-D1870 and OSI-906 | 63.3 | 97.7 | 37.8 | 71.8 | 102
selumetinib and BI-D1870 | 58.3 | 69.8 | 57.7 | 69.1 | 95.5
ENMD-2076 and selumetinib | 44.3 | 63.7 | 62.3 | 76.4 | 96.2
lapatinib and darinaparsin | 76.7 | 68.3 | 38.7 | 62.3 | 82.4
BI-D1870 and darinaparsin | 67.8 | 59.9 | 61.2 | 75.3 | 63.1
temozolomide and BI-D1870 | 54.4 | 75.6 | 45.9 | 77.3 | 101
vismodegib and temozolomide | 146 | 105 | 91.3 | 71.8 | 75.4
nilutamide and BI-D1870 | 67.1 | 81.1 | 66.3 | 96.5 | 102
vismodegib and lapatinib | 55.5 | 84.0 | 47.1 | 67.5 | 79.6
temozolomide and nilutamide | 91.0 | 92.3 | 73.0 | 63.3 | 77.6
lapatinib and OSI-906 | 71.9 | 101 | 42.8 | 58.0 | 85.1
nilutamide and darinaparsin | 78.3 | 68.6 | 79.7 | 112 | 82.3
vismodegib and selumetinib | 56.2 | 51.9 | 77.4 | 56.3 | 101
darinaparsin and selumetinib | 79.3 | 54.7 | 59.7 | 70.2 | 77.8
nilutamide and vismodegib | 125 | 89.1 | 99.7 | 94.1 | 94.5
vismodegib and BI-D1870 | 65.9 | 89.1 | 75.6 | 94.7 | 97.0

For reference, 3 entries once more:

{"drugs": "darinaparsin and ENMD-2076", "WM3619": 78.4, "WM451Lu": 68.2, "COLO 800": 53.9, "COLO 792": 52.5, "COLO 829": 80.0}
{"drugs": "OSI-906 and darinaparsin", "WM3619": 87.0, "WM451Lu": 68.9, "COLO 800": 42.7, "COLO 792": 85.2, "COLO 829": 93.6}
{"drugs": "nilutamide and vismodegib", "WM3619": 125, "WM451Lu": 89.1, "COLO 800": 99.7, "COLO 792": 94.1, "COLO 829": 94.5}